# Experimental data from PubChem BioAssay AID493197 (Broad Institute, 2011).
# Inconclusive means that the source gave no clear call. Such entries were picked first, then a sample of the others. Calls of active or inactive are those of the source. The rule behind the calls is not given here.
# Experiment: growth inhibition of intracellular Trypanosoma cruzi, dose response, cell-based, plate reader, dry powder, set 3 (AID 493197)
# Settings: intracellular Trypanosoma cruzi in host cells; at 19.5 µM (top of the series)
row,SMILES,"activity change, negative = inhibition"
1,CCNC(=O)C1(C)CCCN(Cc2cccc3c2OCCO3)C1 (stereo not drawn),inconclusive: -33.3%
2,CCNC(=O)C1CCCN(C(=O)c2cc(OC)c(OC)c(OC)c2)CC1 (stereo not drawn),inactive: -5.26%
3,COc1ccc(CCNC(=O)C2CCCCC2)cc1OC,inactive: -18%
4,O=C(CNC(=O)c1ccco1)N/N=C/c1ccc([N+](=O)[O-])o1,inconclusive: -72.9%
5,COc1ccc(CCN(C)C(=O)C2CCCN(Cc3ccccc3C)C2)cc1OC (stereo not drawn),inconclusive: -25.3%
6,CN(Cc1ccccc1)C(=O)C1CCCN(Cc2ccc(C(F)(F)F)cc2)C1 (stereo not drawn),inconclusive: -71.4%
7,CCNC(=O)C1(C)CCN(C(=O)c2ccc(OC)c(OC)c2)C1 (stereo not drawn),inactive: -4.33%
8,COc1ccc(CN2CCC(C(=O)NC3CCCC3)CC2)cc1OC,inactive: -40.9%
9,COc1cc(CN2CCC(C(=O)NC(C)c3ccc(OC)c(OC)c3)CC2)cc(OC)c1 (stereo not drawn),inconclusive: -44.4%
10,COCCNC(=O)C1(C)CCCN(C(=O)c2cc(OC)c(OC)c(OC)c2)C1 (stereo not drawn),inactive: 14.9%
11,COc1cc2c(cc1OC)CN(C(=O)C1CCCN(Cc3ccccc3)C1)CC2 (stereo not drawn),inconclusive: -71.5%
12,CCCCCC(=O)N/N=C/c1ccc([N+](=O)[O-])o1,inconclusive: -79.9%
13,COc1cc2c(cc1OC)C(C)N(CCC(N)=O)CC2 (stereo not drawn),inactive: -16.1%

# Part of the list above in a different format:
row | SMILES | activity change, negative = inhibition
7 | CCNC(=O)C1(C)CCN(C(=O)c2ccc(OC)c(OC)c2)C1 (stereo not drawn) | inactive: -4.33%
8 | COc1ccc(CN2CCC(C(=O)NC3CCCC3)CC2)cc1OC | inactive: -40.9%
